# Assay results taken from the supplement of paper PMC8104966.
# The list shows a part of the results. This data set is noisy: repeats of one test often differ as much as different tests do.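 U2OS cells carrying ACE2 were mixed with U2OS cells carrying full-length spike, and fusion was scored by imaging as the share of nuclei showing both cell types' fluorescent markers. A compound counts as an inhibitory hit when it is non-toxic and its fusion z-score falls below -3, meaning more than three standard deviations below the plate's DMSO wells.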
# Test system: U2OS ACE2 x SARS-CoV-2 spike co-culture
# Assay: cell-cell fusion (fraction fused) z-score vs plate DMSO control; higher = more fusion
# Conditions: 30 µM; 5 h; toxicity class: non-toxic, passed QC
row,Structure (SMILES),cell-cell fusion (z-score)
1,O=C(O)C1=C[C@@H](O)[C@@H](O)[C@H](O)C1,inactive: 1.99
2,Cc1cc(C)c(/C=C2\C(=O)Nc3ccc(Cl)cc32)[nH]1,inactive: 4.14
3,CCC1(c2ccc(N)cc2)CCC(=O)NC1=O (racemic) [(±)-p-Aminoglutethimide],inactive: 1.32
4,O=C1CN(/N=C/c2ccc([N+](=O)[O-])o2)C(=O)N1,inactive: 2.45
5,Cc1c(NC(=O)OC[C@@H]2COCCN2)cn2ncnc(Nc3ccc4c(cnn4Cc4cccc(F)c4)c3)c12.Cl,inactive: 1.03
6,C[N+]1([O-])[C@@H]2CC[C@H]1C[C@@H](OC(=O)C(CO)c1ccccc1)C2 (stereo partly specified),inactive: -1.46
7,CO[C@]1(NC(=O)C2S\C(S2)=C(/C(N)=O)C(O)=O)[C@H]2SCC(CSc3nnnn3C)=C(N2C1=O)C(O)=O (stereo partly specified) [Cefotetan],inactive: 1.01
8,Cc1cc(C(=O)NOCCO)c(Nc2ccc(I)cc2F)n(C)c1=O,inactive: 1.13
9,CCCCNc1ccc(C(=O)OCCN(C)C)cc1.Cl,inactive: 2.5
10,CCCCNc1ccc(C(=O)OCCN(C)C)cc1.Cl [Tetracaine hydrochloride],inactive: -0.0102
11,O=C1[C@H](CC[C@H](O)c2ccc(F)cc2)[C@@H](c2ccc(O)cc2)N1c1ccc(F)cc1 [Ezetimibe],inactive: -1.61
12,O=C1C2CC3CC1CC(O)(C3)C2,inactive: 2.08
13,C[C@H](c1ccc(F)cc1CCCC(=O)O)N(c1cc(F)ccc1F)S(=O)(=O)c1ccc(Cl)cc1,inactive: 2.86
14,NCCCC(N)C(=O)O.NCCCC(N)C(=O)O.O=C(O)CCC(=O)C(=O)O,inactive: 0.648
15,CCc1cc2c(cc1N1CCC(N3CCOCC3)CC1)C(C)(C)c1[nH]c3cc(C#N)ccc3c1C2=O [Alectinib],inactive: -2.02
16,C[n+]1ccccc1/C=N/O.[Cl-] [Pralidoxime Chloride],inactive: 2.45
17,Fc1ccc2[nH]c(CN3CCN(c4ccccn4)CC3)cc2c1,inactive: -0.481
18,Cl.O=C1Cc2cc(CCN3CCN(c4nsc5ccccc45)CC3)c(Cl)cc2N1 [Ziprasidone hydrochloride],active: -3.56
19,CC(C)(C)C(=O)C(Oc1ccc(Cl)cc1)n1cncn1 (stereo unspecified),inactive: 3.35
20,O=C(Cc1ccccc1Nc1c(Cl)cccc1Cl)[O][Na] [Diclofenac sodium],inactive: 3.17
21,Cl.Clc1ccc(C(OCCN2CCCCC2)c2ccccc2)cc1 (stereo unspecified),inactive: 0.23
22,C[C@@H]1C[C@H]2[C@@H]3CCC4=CC(=O)C=C[C@]4(C)[C@@]3(F)[C@@H](O)C[C@]2(C)[C@@]1(O)C(=O)CO [Dexamethasone],inactive: 3.14
23,CC(=O)N(CC(O)CN(C(C)=O)c1c(I)c(C(=O)NCC(O)CO)c(I)c(C(=O)NCC(O)CO)c1I)c1c(I)c(C(=O)NCC(O)CO)c(I)c(C(=O)NCC(O)CO)c1I (stereo unspecified),inactive: 2.66
24,CC(=O)OCC(=O)NCCCOc1cccc(CN2CCCCC2)c1.Cl,inactive: 0.0992

row,Structure (SMILES),cell-cell fusion (z-score)
1,Cl.N[C@H](Cc1ccccc1)C(=O)O,inactive: 0.519
2,COc1ccc(-c2cc(=O)c3c(O)c(OC)c(OC)c(OC)c3o2)cc1,inactive: 2.37
3,CC(C)COCC(CN(Cc1ccccc1)c1ccccc1)N1CCCC1.Cl (stereo unspecified) [Bepridil hydrochloride],inactive: -2.19
4,Cc1nnc(NS(=O)(=O)c2ccc(N)cc2)s1 [Sulfamethizole],inactive: 2.64
5,Cl.Cl.c1cnc2cc3c(cc2n1)C1CNCC3C1 [Varenicline],inactive: 2.52
6,CC(=O)OCC(=O)[C@@]1(O)CCC2C3CCC4=CC(=O)CC[C@]4(C)C3C(=O)C[C@@]21C (stereo partly specified),inactive: 1.21
7,COc1ccc(-c2coc3c(OC)c(OC)cc(O)c3c2=O)cc1,inactive: 1.26
8,CS(=O)(=O)Nc1ccc([N+](=O)[O-])cc1Oc1ccccc1,inactive: 3.4
9,Cc1nc(NC(=O)N2CCC[C@H]2C(N)=O)sc1-c1ccnc(C(C)(C)C(F)(F)F)c1 [Alpelisib],inactive: 1.16
10,CC(CN1c2ccccc2Sc2ccccc21)N(C)C.Cl (stereo unspecified),inactive: -1.66
11,CC(CN1c2ccccc2Sc2ccccc21)N(C)C.Cl (stereo unspecified) [Promethazine hydrochloride],inactive: 3.27
12,CC(C)(C)c1nc(-c2cccc(NS(=O)(=O)c3c(F)cccc3F)c2F)c(-c2ccnc(N)n2)s1,inactive: 0.628
13,CN1CC\C(CC1)=C1\c2ncc(C=O)n2CCc2ccccc12 [Alcaftadine],inactive: 1.9
14,CC#C[C@]1(O)CCC2C3CCC4=CC(=O)CCC4=C3[C@@H](c3ccc(N(C)C)cc3)C[C@@]21C (stereo partly specified),active: -4.1
15,CC(=O)OC(C)OC(=O)C(C)c1ccc(-c2ccccc2)c(F)c1 (stereo unspecified) [Flurbiprofen Axetil],inactive: -0.126
16,O=C(Nc1ccc(-c2ccnc(Nc3ccc(N4CCOCC4)cc3)n2)cc1)[C@@H]1CCCN1,inactive: 1.48
17,CCCCCCCC/C=C\CCCCCCCC(=O)[O-].[NH3+]CCO,inactive: 1.53
18,COc1ccc(C(=O)O)c(O)c1OC,inactive: 1.38
19,CC(=O)OCC(OC(C)=O)C(OC(C)=O)C(OC(C)=O)C(OC(C)=O)C(COC(C)=O)OC(C)=O (stereo unspecified),inactive: 1.78
20,C[C@]12C=CC(=O)C=C1CCC1C3C[C@@H](O)[C@](O)(C(=O)CO)[C@@]3(C)C[C@H](O)[C@@]12F (stereo partly specified),inactive: 0.871
21,Nc1nc(=O)c2c([nH]1)NC=C(CNc1ccc(C(=O)N[C@H](CCC(=O)O)C(=O)O)cc1)N2,inactive: 2.3
22,CN[C@H](CC(C)C)C(=O)N[C@H]1C(=O)N[C@@H](CC(N)=O)C(=O)N[C@H]2C(=O)N[C@H]3C(=O)N[C@H](C(=O)N[C@H](C(=O)O)c4cc(O)cc(O)c4-c4cc3ccc4O)[C@H](O)c3ccc(c(Cl)c3)Oc3cc2cc(c3O[C@@H]2O[C@H](CO)[C@@H](O)[C@H](O)[C@H]2O[C@H]2C[C@](C)(N)[C@H](O)[C@H](C)O2)Oc2ccc(cc2Cl)[C@H]1O.Cl [Vancomycin hydrochloride],inactive: 3.22
23,CCCc1nc2c(C)cc(-c3nc4ccccc4n3C)cc2n1Cc1ccc(-c2ccccc2C(=O)O)cc1 [Telmisartan],inactive: 2.97
24,N[C@@H](COP(=O)(O)O)C(=O)O [O-Phospho-L-serine],inactive: 1.73

row,Structure (SMILES),cell-cell fusion (z-score)
1,COc1ccc(C2Sc3ccccc3N(CCN(C)C)C(=O)C2OC(C)=O)cc1.Cl (stereo unspecified),inactive: 2.55
2,"CC(N)(Cc1ccc(O)c(O)c1)C(=O)O (racemic) [(±)-3-(3,4-dihydroxyphenyl)-2-methyl-DL-alanine]",inactive: 1.82
3,NC(=O)c1ccc(I)c([N+](=O)[O-])c1 [Iniparib (BSI-201)],inactive: 2.25
4,COc1cc(C(C)=O)cc(OC)c1O,inactive: 1.7
5,CC(=O)O[C@H]1CC[C@@]2(C)C(C[C@@H](OC(C)=O)[C@]3(C)C2CC[C@@]2(C)[C@H](c4ccoc4)OC(=O)[C@H]4O[C@]423)C1(C)C (stereo partly specified),inactive: 3.6
6,N[C@@H](CS)C(=O)O [cysteine],inactive: 2.16
7,O=C(O)CSCC(=O)NC1CCSC1=O (stereo unspecified),inactive: 2.14
8,CCCCCCC(=O)OC1CC(C)(C)NC(C)(C)C1.Cl [TMPH hydrochloride],inactive: 2.9
9,Cl.NCCCC(=O)O [gamma-AMINOBUTYRIC ACID HYDROCHLORIDE],inactive: 0.411
10,NC(=O)c1ccc(N)nc1,inactive: 5.24
11,C1CNCCN1,inactive: 0.882
12,CC(C)(C)NS(=O)(=O)c1cncc(-c2cc(F)c3nc(N)nn3c2)c1,inactive: 2.35
13,COc1c(C)c(C(=O)c2ccc(N)c(C(=O)[O][Na])c2)n2ccccc12,inactive: 1.21
14,C=C1C(C2(C)C=CC(=O)C(C)(C)C2CC(=O)OC)CC[C@@]2(C)[C@H](c3ccoc3)OC(=O)C3OC132 (stereo partly specified),inactive: 1.86
15,COC(=O)Nc1nc2cc(C(=O)c3cccs3)ccc2[nH]1 [Nocodazole],inactive: 0.559
16,CC(C)=CCC/C(C)=C/CO,inactive: 2.46
17,C[C@H](NCCc1ccc(O)cc1)[C@H](O)c1ccc(O)cc1.Cl [Ritodrine hydrochloride],inactive: -0.545
18,CC(C)(C)[C@@H]1NC(=O)O[C@@H]2CCC[C@H]2OCC=CC(F)(F)c2nc3ccccc3nc2O[C@@H]2C[C@@H](C(=O)N[C@]3(C(=O)NS(=O)(=O)C4(C)CC4)C[C@H]3C(F)F)N(C2)C1=O [Glecaprevir],inactive: 1.49
19,O=C(CCc1ccc(O)cc1)c1c(O)cc(O)cc1O,inactive: 1.82
20,CO/N=C(\C(=O)N[C@@H]1C(=O)N2C(C(=O)O)=C(CSc3nnnn3C)CS[C@H]12)c1csc(N)n1.CO/N=C(\C(=O)N[C@@H]1C(=O)N2C(C(=O)O)=C(CSc3nnnn3C)CS[C@H]12)c1csc(N)n1.Cl [Cefmenoxime hydrochloride],inactive: 2.31
21,"N[C@@H](Cc1ccc(O)c(O)c1)C(=O)O [L-3,4-Dihydroxyphenylalanine]",inactive: 3.81
22,N[C@@H](Cc1ccc(O)c(O)c1)C(=O)O,inactive: 3.45
23,Cl.NC(CO)C(=O)NNCc1ccc(O)c(O)c1O (stereo unspecified),inactive: 1.78

# Pulled one by one from above (4):
row,Structure (SMILES),cell-cell fusion (z-score)
19,O=C(CCc1ccc(O)cc1)c1c(O)cc(O)cc1O,inactive: 1.82
17,C[C@H](NCCc1ccc(O)cc1)[C@H](O)c1ccc(O)cc1.Cl [Ritodrine hydrochloride],inactive: -0.545
13,COc1c(C)c(C(=O)c2ccc(N)c(C(=O)[O][Na])c2)n2ccccc12,inactive: 1.21
3,NC(=O)c1ccc(I)c([N+](=O)[O-])c1 [Iniparib (BSI-201)],inactive: 2.25
